Test [1] addresses human joining chain (J-chain) (human) (UniProt P01591). As to the kind of experiment: non-reducing SDS-PAGE with Coomassie staining and Western blot.
The target is the same in test [2]. The test is described as above. This is another data set of the same source.

Sequences of proteins named here, by UniProt entry; tags and fusion partners are left off. Residues count along the entry.
UniProt P01591, residues 23-159: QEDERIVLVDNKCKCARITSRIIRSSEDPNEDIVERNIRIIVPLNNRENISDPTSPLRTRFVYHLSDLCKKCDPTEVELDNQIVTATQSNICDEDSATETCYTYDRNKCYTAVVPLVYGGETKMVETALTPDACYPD

Like-named read-outs stand apart in the source and are kept apart here. No constants are given. Whether binding was seen depends on the method and setting. Some results given as binding are weak or reduced against the parent protein; the word gives no strength.

Regarding “human joining chain (J-chain) (from UniProt P01591 23-159)”, the binding result in test [1] and in test [2] was “binds” throughout.

The values are drawn from publication doi:10.1101/2023.09.01.555973.
